Results taken from article PMC12665141.
Results are given in words; binding and its absence hold for the method and conditions named. For some assays here: In cells and extracts the contact can be indirect. Some entries that bind do so weakly or less than the wild type.

Chains of the proteins cited; added tags and fusions are not shown.
UniProt P26039: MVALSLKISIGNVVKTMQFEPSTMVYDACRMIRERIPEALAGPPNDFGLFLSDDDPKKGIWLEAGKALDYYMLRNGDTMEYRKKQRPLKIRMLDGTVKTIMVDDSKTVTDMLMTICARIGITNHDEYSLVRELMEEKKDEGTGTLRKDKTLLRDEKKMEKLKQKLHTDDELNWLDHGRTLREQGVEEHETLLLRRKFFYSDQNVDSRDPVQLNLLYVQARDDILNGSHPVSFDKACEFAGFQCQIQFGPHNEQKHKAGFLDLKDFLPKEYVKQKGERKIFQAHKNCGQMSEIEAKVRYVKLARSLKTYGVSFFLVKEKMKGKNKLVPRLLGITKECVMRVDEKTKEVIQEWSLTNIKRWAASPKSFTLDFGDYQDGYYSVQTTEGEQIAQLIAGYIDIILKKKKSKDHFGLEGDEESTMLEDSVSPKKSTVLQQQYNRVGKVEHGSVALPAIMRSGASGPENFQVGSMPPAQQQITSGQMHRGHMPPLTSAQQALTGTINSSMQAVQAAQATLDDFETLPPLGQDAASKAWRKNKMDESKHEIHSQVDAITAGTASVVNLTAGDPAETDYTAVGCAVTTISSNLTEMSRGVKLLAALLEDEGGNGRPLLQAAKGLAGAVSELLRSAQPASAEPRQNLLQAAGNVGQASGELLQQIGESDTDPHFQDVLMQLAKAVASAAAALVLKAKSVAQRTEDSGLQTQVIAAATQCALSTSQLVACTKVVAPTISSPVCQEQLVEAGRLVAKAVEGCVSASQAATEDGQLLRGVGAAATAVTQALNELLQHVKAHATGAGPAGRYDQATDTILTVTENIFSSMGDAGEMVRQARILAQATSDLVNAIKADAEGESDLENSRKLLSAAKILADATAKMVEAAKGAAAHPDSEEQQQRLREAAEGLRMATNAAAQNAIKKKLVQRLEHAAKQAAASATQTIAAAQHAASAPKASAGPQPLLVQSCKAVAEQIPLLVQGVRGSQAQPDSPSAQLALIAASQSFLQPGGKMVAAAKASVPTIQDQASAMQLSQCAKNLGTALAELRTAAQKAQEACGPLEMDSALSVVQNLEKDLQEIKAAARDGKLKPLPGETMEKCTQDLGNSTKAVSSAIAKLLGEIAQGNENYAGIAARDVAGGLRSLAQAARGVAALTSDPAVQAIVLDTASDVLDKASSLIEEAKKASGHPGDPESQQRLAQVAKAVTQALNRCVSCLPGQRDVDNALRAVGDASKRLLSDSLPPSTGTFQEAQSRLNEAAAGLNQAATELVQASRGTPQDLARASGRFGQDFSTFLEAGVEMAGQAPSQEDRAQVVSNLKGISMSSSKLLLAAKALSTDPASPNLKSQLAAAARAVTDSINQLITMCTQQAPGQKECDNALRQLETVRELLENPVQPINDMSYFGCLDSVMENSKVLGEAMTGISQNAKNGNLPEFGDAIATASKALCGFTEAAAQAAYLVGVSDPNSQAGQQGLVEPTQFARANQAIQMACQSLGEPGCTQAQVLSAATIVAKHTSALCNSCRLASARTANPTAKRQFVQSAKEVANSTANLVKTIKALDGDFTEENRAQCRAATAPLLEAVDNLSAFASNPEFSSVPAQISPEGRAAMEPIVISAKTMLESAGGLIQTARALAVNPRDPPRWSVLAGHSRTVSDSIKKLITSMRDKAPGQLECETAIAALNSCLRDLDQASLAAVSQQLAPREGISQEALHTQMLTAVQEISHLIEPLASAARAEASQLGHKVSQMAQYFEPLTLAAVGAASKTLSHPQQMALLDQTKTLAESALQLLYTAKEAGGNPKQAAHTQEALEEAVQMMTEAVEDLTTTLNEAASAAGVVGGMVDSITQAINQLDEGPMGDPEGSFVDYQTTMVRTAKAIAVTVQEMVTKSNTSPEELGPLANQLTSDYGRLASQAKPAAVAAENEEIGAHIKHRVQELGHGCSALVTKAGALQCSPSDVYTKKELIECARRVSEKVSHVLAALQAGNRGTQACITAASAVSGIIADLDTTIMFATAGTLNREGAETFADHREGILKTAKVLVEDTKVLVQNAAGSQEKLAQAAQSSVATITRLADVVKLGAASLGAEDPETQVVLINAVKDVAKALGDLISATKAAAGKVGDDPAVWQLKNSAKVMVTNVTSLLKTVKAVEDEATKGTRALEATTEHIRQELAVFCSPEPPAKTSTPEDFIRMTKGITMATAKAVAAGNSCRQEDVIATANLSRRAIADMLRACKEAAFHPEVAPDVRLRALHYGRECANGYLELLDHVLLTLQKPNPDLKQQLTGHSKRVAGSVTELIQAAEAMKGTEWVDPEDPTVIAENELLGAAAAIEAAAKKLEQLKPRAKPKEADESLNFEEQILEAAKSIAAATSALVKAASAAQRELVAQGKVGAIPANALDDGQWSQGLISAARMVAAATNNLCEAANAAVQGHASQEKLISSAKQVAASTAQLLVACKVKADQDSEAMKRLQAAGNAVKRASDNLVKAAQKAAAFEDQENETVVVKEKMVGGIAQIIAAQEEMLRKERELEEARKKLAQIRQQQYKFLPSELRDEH
UniProt P02340: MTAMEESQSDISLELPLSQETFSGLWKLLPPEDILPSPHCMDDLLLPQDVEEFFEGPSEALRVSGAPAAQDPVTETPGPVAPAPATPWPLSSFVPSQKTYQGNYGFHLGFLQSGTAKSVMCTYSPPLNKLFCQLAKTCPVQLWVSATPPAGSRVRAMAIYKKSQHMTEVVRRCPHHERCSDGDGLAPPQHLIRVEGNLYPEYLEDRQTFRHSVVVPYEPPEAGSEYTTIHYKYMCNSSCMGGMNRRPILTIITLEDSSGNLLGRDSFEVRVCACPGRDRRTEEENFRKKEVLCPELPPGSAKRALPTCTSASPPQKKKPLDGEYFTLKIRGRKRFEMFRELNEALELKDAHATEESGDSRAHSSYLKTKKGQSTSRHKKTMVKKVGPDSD

How the values were obtained:
talin1-Flag = talin1-Flag (UniProt P26039); assay: pull-down; purified talin1-Flag and p53-His incubated at 4 °C for 2 h, captured with Flag beads, eluted with Flag peptide, SDS-PAGE and Coomassie staining; 25 mM HEPES pH 7.5, 150 mM NaCl; both purified
[1] = molecular target: talin1 (mouse (endogenous in MLO-Y4)) (UniProt P26039); assay: co-IP; MLO-Y4 cell extracts (RIPA buffer) incubated overnight with anti-talin1 antibody, Protein A/G magnetic beads, Western blot for p53

| binding (talin1-Flag) | binding [1] | Substance |
| --- | --- | --- |
| binds |  | p53-His (from UniProt P02340 1-390) |
|  | binds | p53 (from UniProt P02340 1-390) |
